Source: article PMC8563733, “The transcriptional corepressor CtBP2 serves as a metabolite sensor orchestrating hepatic glucose and lipid homeostasis” (Nature Communications, 2021)

Protein sequences, listed by entry. Tags and fused reporters are not part of them. Lines headed by an entry give the natural chain unless they say otherwise; changes in a name come on top.
UniProt Q9R1E0: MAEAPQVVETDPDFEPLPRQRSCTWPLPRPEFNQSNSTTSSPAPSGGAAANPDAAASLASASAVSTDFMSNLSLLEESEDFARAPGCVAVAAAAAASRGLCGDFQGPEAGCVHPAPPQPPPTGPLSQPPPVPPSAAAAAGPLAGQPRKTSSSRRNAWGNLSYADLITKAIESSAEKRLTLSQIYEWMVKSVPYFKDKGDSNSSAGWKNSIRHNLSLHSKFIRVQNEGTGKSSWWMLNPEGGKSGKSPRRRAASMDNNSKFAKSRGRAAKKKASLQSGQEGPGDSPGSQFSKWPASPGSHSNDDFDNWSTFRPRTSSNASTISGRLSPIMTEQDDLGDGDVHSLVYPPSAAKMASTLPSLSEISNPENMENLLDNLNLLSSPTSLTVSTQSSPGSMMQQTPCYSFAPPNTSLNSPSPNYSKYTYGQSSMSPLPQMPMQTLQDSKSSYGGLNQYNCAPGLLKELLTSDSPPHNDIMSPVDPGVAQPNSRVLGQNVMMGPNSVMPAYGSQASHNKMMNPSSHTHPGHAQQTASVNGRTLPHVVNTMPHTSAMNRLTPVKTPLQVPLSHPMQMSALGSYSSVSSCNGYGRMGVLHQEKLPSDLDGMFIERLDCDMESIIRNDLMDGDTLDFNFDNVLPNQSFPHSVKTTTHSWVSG
UniProt P35222: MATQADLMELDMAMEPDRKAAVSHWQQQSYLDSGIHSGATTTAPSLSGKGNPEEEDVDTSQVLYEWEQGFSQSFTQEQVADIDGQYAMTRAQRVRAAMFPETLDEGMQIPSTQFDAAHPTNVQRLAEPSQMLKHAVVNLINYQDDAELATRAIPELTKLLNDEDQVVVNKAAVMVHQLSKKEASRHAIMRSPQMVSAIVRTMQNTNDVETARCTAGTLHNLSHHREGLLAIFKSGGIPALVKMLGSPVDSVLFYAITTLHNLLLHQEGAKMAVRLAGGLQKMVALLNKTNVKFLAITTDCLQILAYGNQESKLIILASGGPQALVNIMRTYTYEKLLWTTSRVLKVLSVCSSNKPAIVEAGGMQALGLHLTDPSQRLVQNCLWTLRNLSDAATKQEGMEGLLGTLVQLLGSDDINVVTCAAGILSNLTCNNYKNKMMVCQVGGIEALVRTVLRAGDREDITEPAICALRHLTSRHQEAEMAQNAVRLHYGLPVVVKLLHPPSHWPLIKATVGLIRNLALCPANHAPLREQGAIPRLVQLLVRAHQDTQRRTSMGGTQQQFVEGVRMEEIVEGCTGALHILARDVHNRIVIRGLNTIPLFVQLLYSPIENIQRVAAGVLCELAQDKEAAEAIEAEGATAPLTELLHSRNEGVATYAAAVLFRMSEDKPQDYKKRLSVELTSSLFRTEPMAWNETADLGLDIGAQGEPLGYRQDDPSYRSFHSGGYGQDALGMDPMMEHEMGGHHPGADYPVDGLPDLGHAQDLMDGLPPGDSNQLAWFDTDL

What was measured:
[1] = biological target: FLAG FoxO1 with the PSDL motif deleted (UniProt Q9R1E0); experiment: co-IP; HEK293 cells transfected with FLAG-FoxO1 (wild type or mutated) and CtBP1 or CtBP2; FLAG M2 magnetic beads, buffer A with 0.5% NP40, 4 h at 4 °C, eluted with 3x FLAG peptide; in some panels NADH, oleoyl-CoA, acetyl-CoA or sodium oleate added to the lysates (8 h at 4 °C), or cells treated with lactate/pyruvate, koningic acid or palmitate-BSA with ACSL1
[2] = biological target: FLAG FoxO1 with the PSDL motif mutated to PSAS (UniProt Q9R1E0); experiment: as above
[3] = biological target: NR5A2(LRH-1) with the PSDL motif deleted (UniProt P45448); experiment: co-IP; HEK293 cells expressing CtBP2 and NR5A2(LRH-1), wild type or mutated in the PSDL motif; which protein was precipitated not given
[4] = biological target: NR5A2(LRH-1) with the PSDL motif mutated to PSAS (UniProt P45448); experiment: as above

Row | binding [1] | binding [2] | binding [3] | binding [4] | Substance
1 | binds | binds | – | – | β-catenin (from UniProt P35222 1-781)
2 | binds | binds | binds | binds | C-terminal binding protein 2 (CtBP2) (from UniProt P56545 1-445)

Results are given in words; binding and its absence hold for the method and conditions named. Binding seen in cells or lysates may run through a third protein. Binding can be weak; no strength is given.
